Laboratory results published in paper PMC6494915.
These are yes or no findings as the source states them, for the method shown. Binding seen in cells or lysates may run through a third protein. Some binding calls cover weakened binding; strength is not graded here.

Biological target: T1, growth arrest and DNA damage protein 45b (Gadd45b) (rat (endogenous in rat ischemic cortex)) (UniProt F7FLQ8)
T1 sequence: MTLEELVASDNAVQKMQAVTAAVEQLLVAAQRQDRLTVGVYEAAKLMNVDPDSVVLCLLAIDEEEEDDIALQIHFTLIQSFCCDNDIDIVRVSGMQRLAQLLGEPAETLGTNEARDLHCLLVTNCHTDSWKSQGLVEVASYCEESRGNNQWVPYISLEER
Assay: co-IP; Protein A/G magnetic beads loaded with anti-ALK5, anti-Gadd45b or anti-IgG antibody, incubated with protein samples of rat ischemic cortex for 2 h at 4 °C; eluates Western blotted for ALK5 and Gadd45b; tissue taken 24 h and 14 d after MCAO/R

B1: activin receptor-like kinase 5 (ALK5) (receptor, UniProt P80204 30-501)
chain: LQCFCHLCTKDNFTCETDGLCFVSVTETTDKVIHNSMCIAEIDLIPRDRPFVCAPSSKTGAVTYCCNQDHCNKIELPTTGPFSEKQSAGLGPVELAAVIAGPVCFVCIALMLMVYICHNRTVIHHRVPNEEDPSLDRPFISEGTTLKDLIYDMTTSGSGSGLPLLVQRTIARTIVLQESIGKGRFGEVWRGKWRGEEVAVKIFSSREERSWFREAEIYQTVMLRHENILGFIAADNKDNGTWTQLWLVSDYHEHGSLFDYLNRYTVTVEGMIKLALSTASGLAHLHMEIVGTQGKPAIAHRDLKSKNILVKKNGTCCIADLGLAVRHDSATDTIDIAPNHRVGTKRYMAPEVLDDSINMKHFESFKRADIYAMGLVFWEIARRCSIGGIHEDYQLPYYDLVPSDPSVEEMRKVVCEQKLRPNIPNRWQSCEALRVMAKIMRECWYANGAARLTALRIKKTLSQLSQQEGIKM
- binding: binds
